Reference: the supplement of paper PMC12889115
The other results are listed elsewhere or left out. These are raw signals, not scaled to a control.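 First-pass screen: polymyxin B was added at a level that permeabilizes the Salmonella outer membrane while sparing the inner membrane. DMSO wells, with and without polymyxin B, defined maximum growth. Because plates differed from one another, each plate's data were ranked separately and the compounds with the lowest OD600 were carried forward as hits.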

Test system: Salmonella enterica serovar Typhimurium SL1344
Experiment: bacterial growth OD600 after 18 h with compound and polymyxin B; higher = more bacterial growth (less inhibition)
Details: 50 µM, Mueller-Hinton broth

Row | SMILES | bacterial growth OD600 (polymyxin B 1 µg/mL) | bacterial growth OD600 (polymyxin B 0.75 µg/mL)
1 | COc1cc(CN2CCN(Cc3cccc(O)c3)CC2CCO)cc(OC)c1 (stereo not given) | 0.786 | –
2 | CN(Cc1ccccn1)C(=O)C1CCC(=O)N(CCc2ccc(Cl)cc2)C1 (stereo not given) | 0.883 | –
3 | CSc1ccccc1OCc1cc(C(=O)N2CCCCC2c2nccs2)no1 (stereo not given) | – | 0.003
4 | CCN1CCN(C2(C(=O)NC(C)c3ccc(F)cc3)Cc3ccccc3C2)CC1 (stereo not given) | – | 0.829
5 | COCCN(Cc1c[nH]c(C)n1)CC1CCCN(C2Cc3ccccc3C2)C1 (stereo not given) | – | 0.775
6 | COc1cccc(CN2CCN(Cc3cccc4c3OCO4)CC2CCO)c1 (stereo not given) | 0.799 | –
7 | Cc1nc(N2CCC(C(=O)NC3CCCCCCC3)CC2)nc2cc(S(C)(=O)=O)ccc12 | – | 0.848
8 | CCc1csc(CCNc2ccc(-c3nc(C4CC4)no3)cn2)n1 | 0.814 | –
9 | COC(=O)C1CCN(Cc2ccc3c(c2)CN(C(=O)c2cnn(Cc4ccccc4)c2)CCO3)CC1 | – | 0.895
10 | COc1cc(C(=O)N2CCCC(C(=O)c3ccc(Cl)cc3C)C2)cc(OC)c1OC (stereo not given) | 0.88 | –
11 | CCCn1cc(CN2C[C@H]3OC(=O)N(Cc4ccccn4)[C@H]3C2)c(C)n1 | – | 0.886
12 | CCCCN(Cc1ccccc1)C(=O)CCC1(Cc2ccc(OC)cc2F)CCC(=O)N1 (stereo not given) | – | 0.624
13 | O=C(N[C@H]1CCCCNC1=O)c1ccc2oc(-c3cccc(F)c3)nc2c1 | – | 0.795
14 | Fc1cccc(C2CCN(Cc3ccc4nccnc4c3)c3ccccc3S2)c1 (stereo not given) | – | 0.02
15 | CC(C)CN(C)c1ccc(C(=O)N2CCC(Oc3cccnc3)CC2)cn1 | 0.816 | –
16 | Cn1ccnc1CN1CCN(C(=O)c2cc(COc3ccccc3)on2)CC1 | 0.984 | –
17 | COc1cc(CNC2CCCCCCC2)ccc1OCC(O)CN1CCC(O)CC1 (stereo not given) | – | 0.854
18 | O=C(NCCc1cccnc1)c1cc(COc2ccc3c(c2)OCO3)[nH]n1 | 1.15 | –
19 | O=C(c1ccccc1OC1CCN(Cc2ccc3c(c2)OCCO3)CC1)N1CCCC1 | 1.25 | –
20 | CO[C@H]1[C@H](NC(=O)c2ccncc2)c2ccccc2C12CCN(C(=O)c1ccc(C(C)=O)cc1)CC2 | – | 0.779

Looked up by structure from the entries so far, 2 records:
Row | SMILES | bacterial growth OD600 (polymyxin B 1 µg/mL) | bacterial growth OD600 (polymyxin B 0.75 µg/mL)
19 | O=C(c1ccccc1OC1CCN(Cc2ccc3c(c2)OCCO3)CC1)N1CCCC1 | 1.25 | –
2 | CN(Cc1ccccn1)C(=O)C1CCC(=O)N(CCc2ccc(Cl)cc2)C1 (stereo not given) | 0.883 | –
